We go through 96 compounds from the supplement of paper PMC3047530.

± gives the standard deviation of the averaged measurements. The list shows a part of the results. Single values are uncertain, as repeats are few or missing.

The assay has as its system Geomyces destructans. Description: growth inhibition relative to DMSO control; higher = stronger growth inhibition. The settings on record: 10 µM; 15 °C; incubation time 10 days.
Regarding `NCC[C@H](O)C(=O)N[C@@H]1C[C@H](N)[C@@H](O[C@H]2O[C@H](CN)[C@@H](O)[C@H](O)[C@H]2O)[C@H](O)[C@H]1O[C@H]1O[C@H](CO)[C@@H](O)[C@H](N)[C@H]1O`, the growth inhibition is -31.1%.

Regarding `COc1ccc2c(c1)OC[C@@H](Cc1ccc(OC)c(OC)c1)[C@H]2O`, the growth inhibition is 3.4%.

`Cn1cnc([N+](=O)[O-])c1Sc1ncnc2[nH]cnc12`: the growth inhibition is -21.4%.

For `CC(C)C(=O)Nc1ccc([N+](=O)[O-])c(C(F)(F)F)c1`, the growth inhibition was -8.04%.

As for `OCCN1C[C@H](O)[C@@H](O)[C@H](O)[C@H]1CO`, the growth inhibition is -39.8%.

For the compound `CC(=O)O[C@@H]1CC2C(C)(C)C(=O)CC[C@]2(C)C2CC[C@]3(C)C(=CC(=O)O[C@H]3c3ccoc3)[C@@]21C` (stereo partly specified), the growth inhibition was -2.22%.

Turning to `CC(=O)O[C@H]1C[C@@H](OC(C)=O)C(C)(C)C2CC(=O)[C@]3(C)C(CC[C@@]4(C)[C@H](c5ccoc5)OC(=O)[C@H]5O[C@]543)[C@]21C` (stereo partly specified), the growth inhibition came out at 4.26%.

Regarding `O=C(O)c1nc2cc(Cl)c(Cl)cc2nc1O`, the growth inhibition is -27.2%.

For the compound `CC(=O)OCC[N+](C)(C)C`, the growth inhibition is -5.15%.

As for `CC(=O)Oc1ccc(O)cc1`, the growth inhibition is -7.05%.

`C[C@H](CCC(=O)O)[C@H]1CC[C@H]2[C@@H]3CC[C@@H]4C[C@H](O)CC[C@]4(C)[C@H]3CC[C@]12C`: the growth inhibition is -6.67%.

`CC1COc2c(N3CCN(C)CC3)c(F)cc3c(=O)c(C(=O)O)cn1c23` (stereo unspecified): the growth inhibition was -3.02%.

Regarding `O=C(O)CCCC[C@@H]1SC[C@@H]2NC(=O)N[C@@H]21`, the growth inhibition was -9.44%.

For the compound `Cc1coc2ccccc2c1=O`, the growth inhibition was -15.7%.

As for `COc1cc(C)c2c(=O)c3c(O)cc(O)cc3oc2c1`, the growth inhibition was -3.7%.

In the case of `COc1ccc2c(c1)O[C@H]1c3ccc(OC)cc3OC[C@@H]21`, the growth inhibition stood at 1.81%.

Regarding `Fc1ccc(C(c2ccccc2)(c2ccccc2F)n2ccnc2)cc1` (stereo unspecified), the growth inhibition was -7.2%.

Turning to `CC(C)NCC(O)c1cc(O)cc(O)c1` (stereo unspecified), the growth inhibition came out at 1.61%.

On to `CCN(CC)Cc1cc(Nc2ccnc3cc(Cl)ccc23)ccc1O`, for which the growth inhibition was -31.9%.

As for `O=C(/C=C/C=C/c1ccc2c(c1)OCO2)N1CCCCC1`, the growth inhibition is -15.7%.

Take `CCC(=O)OCC(=O)[C@@]1(OC(=O)CC)[C@@H](C)C[C@H]2[C@@H]3CCC4=CC(=O)C=C[C@]4(C)[C@@]3(Cl)[C@@H](O)C[C@@]21C`: the growth inhibition was -34%.

Consider `C=C(C)/C=C1/C=CC(=O)C(C)=C1`, for which the growth inhibition is -11.4%.

In the case of `OC[C@H]1O[C@@](CO)(O[C@H]2O[C@H](CO)[C@@H](O)[C@H](O)[C@H]2O)[C@@H](O[C@H]2O[C@H](CO)[C@@H](O)[C@H](O)[C@H]2O)[C@@H]1O`, the growth inhibition is -16.5%.

On to `NCCCC[C@H](NC(=O)[C@H](Cc1ccc(O)cc1)NC(=O)[C@@H](N)CCCCN)C(=O)O`, for which the growth inhibition was -29.4%.

For `COc1ccccc1N1CCN(CCCNc2cc(=O)n(C)c(=O)n2C)CC1`, the growth inhibition amounted to 23.7%.

Turning to `CC(C)CCCC(C)C1CCC2C3CCC4CC(O)CCC4(C)C3CCC12C` (stereo unspecified), the growth inhibition is -2.93%.

As to `O=C1CCC(N2C(=O)c3ccccc3C2=O)C(=O)N1` (stereo unspecified), the growth inhibition is -35.9%.

For `CC1(C)C[C@@H]2C(=O)CC[C@H]3O[C@]3(C)CC[C@H]21`, the growth inhibition was -5.26%.

For the compound `COc1c(O)cc2oc3cc(O)c(CC=C(C)C)c(O)c3c(=O)c2c1CC=C(C)C` [alpha-MANGOSTIN], the growth inhibition turned out to be 18.7%.

For `CCOC(=O)C1(O)Oc2cc(OC)cc(OC)c2C(=O)C1c1ccccc1` (stereo unspecified), the growth inhibition was -17.8%.

For the compound `COC(=O)C[C@H]1C(C)(C)[C@@H](OC(C)=O)[C@@H]2CC3C4CC(=O)O[C@@H](c5ccoc5)[C@]4(C)CCC3[C@@]1(C)C2=O` (stereo partly specified), the growth inhibition was -8.86%.

Regarding `CC1(C)S[C@@H]2[C@H](NC(=O)Cc3ccccc3)C(=O)N2[C@H]1C(=O)O`, the growth inhibition is -26.7%.

`CCCCc1nc(Cl)c(CO)n1Cc1ccc(-c2ccccc2-c2nnn[nH]2)cc1`: the growth inhibition is -28.6%.

As for `CCN(CC)CCNC(=O)COc1ccc(OC)cc1`, the growth inhibition was -12%.

On to `CC(=O)OCC1=C(C(=O)O)N2C(=O)[C@@H](NC(=O)Cc3cccs3)[C@H]2SC1`, for which the growth inhibition was -1.52%.

On to `CC(N)C(=O)OC(C)(C)Cc1ccc(Cl)cc1` (stereo unspecified), for which the growth inhibition is -42.3%.

With `Cc1cccc(Nc2ccccc2C(=O)O)c1C`, the growth inhibition was -2.9%.

Consider `CNCCCN1c2ccccc2CCc2ccccc21`, for which the growth inhibition is -3.41%.

As to `O=C(O)[C@]1(O)C[C@@H](O)[C@@H](O)[C@H](O)C1`, the growth inhibition was -2.02%.

Regarding `CC[n+]1c(-c2ccccc2)c2cc(N)ccc2c2ccc(N)cc21`, the growth inhibition was 70.2%.

`C[n+]1ccccc1C=NO`: the growth inhibition is -6.3%.

With `O=c1c2ccccc2oc2ccc(O)cc12`, the growth inhibition was 0.751%.

In the case of `C=C1C2=CC(=O)O[C@@H](c3ccoc3)[C@]2(C)CC[C@@H]1[C@@]1(C)C=CC(=O)C(C)(C)[C@@H]1CC(=O)OC`, the growth inhibition was -22.3%.

As to `CC(C)=CCc1c2c(c3occ(-c4ccc(O)cc4)c(=O)c3c1O)C=CC(C)(C)O2`, the growth inhibition is -3.94 ± 3.2%.

For `COC(=O)C1=C(C)NC(C)=C(C(=O)OCCN(C)Cc2ccccc2)C1c1cccc([N+](=O)[O-])c1` (stereo unspecified), the growth inhibition is -26%.

Regarding `O=C1C(O)=C([C@H]2CC[C@H](c3ccc(Cl)cc3)CC2)C(=O)c2ccccc21`, the growth inhibition was -5.63%.

On to `COc1ccc(-c2coc3cc(OC)cc(O)c3c2=O)cc1`, for which the growth inhibition is -21.1%.

In the case of `Cc1ccccc1C(OCCN(C)C)c1ccccc1` (stereo unspecified), the growth inhibition is -23.7%.

For `CC(=O)OC(C)(C)[C@@H]1Cc2cc3ccc(=O)oc3cc2O1`, the growth inhibition was -5.1%.

For the compound `CCCCCCCCCCCC1=C(O)C(=O)C=C(O)C1=O`, the growth inhibition came out at 7.49%.

Turning to `COc1c2ccoc2cc2oc(=O)ccc12`, the growth inhibition was -4.11%.

In the case of `COc1ccc(-c2cc(=O)c3c(OC)cccc3o2)cc1`, the growth inhibition turned out to be 2.91%.

On to `CN(C)CCOC(c1ccc(Cl)cc1)c1ccccn1` (stereo unspecified), for which the growth inhibition is -32.4%.

`NC(=O)NC1NC(=O)NC1=O` (stereo unspecified): the growth inhibition was -1.93%.

For `C[C@@H]1CC[C@@]23CCC4(C)[C@@](C=CC5[C@@]6(C)CCC(=O)C(C)(C)C6CC[C@]54C)(OC2=O)C3[C@H]1C` (stereo partly specified), the growth inhibition is -5.72%.

With `CCCCNc1ccc(C(=O)OCCN(C)C)cc1`, the growth inhibition was -26.2%.

For the compound `CCN(CC)CCOc1ccc(C(=C(Cl)c2ccccc2)c2ccccc2)cc1`, the growth inhibition came to 29%.

On to `CC1(C)CC[C@]2(C(=O)O)CC[C@]3(C)C(=CCC4[C@@]5(C)CC[C@@H](O)C(C)(C)C5CC[C@]43C)C2C1` (stereo partly specified), for which the growth inhibition was -4.75%.

Regarding `COc1cc2occ(-c3ccccc3)c(=O)c2c(OC)c1C`, the growth inhibition is -17.3%.

`CN1CCOC(c2ccccc2)c2ccccc2C1` (stereo unspecified): the growth inhibition was -40.8%.

On to `N=C(N)NCCCCN`, for which the growth inhibition is -0.36%.

On to `CC(=O)O[C@H]1C[C@@H](OC(C)=O)C(C)(C)[C@@H]2C[C@@H](OC(C)=O)[C@@]3(C)C4=CC(=O)O[C@@H](c5ccoc5)[C@]4(C)CC[C@@H]3[C@@]12C`, for which the growth inhibition was -9.33%.

For the compound `O=C1[C@H](CC[C@H](O)c2ccc(F)cc2)[C@@H](c2ccc(O)cc2)N1c1ccc(F)cc1`, the growth inhibition is -35.8%.

Take `C=C1C2CC[C@@]3(C)[C@H](c4ccoc4)OC(=O)C[C@]13O[C@H]1CC(=O)C(C)(C)[C@H](C(O)C(=O)OC)[C@@]21C` (stereo partly specified): the growth inhibition is -15.8%.

As to `CCc1ccc2c(O)c3c(cc2c1C(=O)OC)C(=O)c1c(O)ccc(O)c1C3=O`, the growth inhibition is -9.32%.

With `NC(=O)c1ccc[n+]([C@@H]2O[C@H](COP(=O)([O-])OP(=O)(O)OC[C@H]3O[C@@H](n4cnc5c(N)ncnc54)[C@H](OP(=O)(O)O)[C@@H]3O)[C@@H](O)[C@H]2O)c1` [SODIUM beta-NICOTINAMIDE ADENINE DINUCLEOTIDE PHOSPHATE], the growth inhibition was -7.03%.

With `CC(C)Cc1ccc(C(C)C(=O)O)cc1` (stereo unspecified), the growth inhibition turned out to be 31.6%.

Consider `COC1=CC(=O)C=C(OC)C1=O`, for which the growth inhibition was -5.65%.

For `COCCc1ccc(OCC(O)CNC(C)C)cc1` (stereo unspecified), the growth inhibition was -6.53%.

As to `COc1ccc(C(=O)c2ccccc2O)c(O)c1`, the growth inhibition amounted to 2.86 ± 12%.

Turning to `O=C(O)C1(C(=O)O)CCC1.[NH2-].[NH2-].[Pt+2]`, the growth inhibition was -4.41%.

As for `CC(=O)Nc1cccc(O)c1`, the growth inhibition is 0.678%.

As to `O=c1c(O)c(-c2ccc(O)c(O)c2)oc2cc(O)cc(O)c12`, the growth inhibition was -30.7%.

As to `CC/C(=C(\c1ccccc1)c1ccc(OCCN(C)C)cc1)c1ccccc1`, the growth inhibition was -6.87%.

As to `CN[C@@H]1[C@H](O[C@H]2[C@H](O[C@H]3[C@H](O)[C@@H](O)[C@H](NC(=N)N)[C@@H](O)[C@@H]3NC(=N)N)O[C@@H](C)[C@]2(O)CO)O[C@@H](CO)[C@H](O)[C@H]1O`, the growth inhibition is -4.04%.

`NCc1ccc(S(N)(=O)=O)cc1`: the growth inhibition amounted to 1.77%.

Turning to `CC(C)(C)NCC(O)c1cc(O)cc(O)c1` (stereo unspecified), the growth inhibition was 20.5%.

`COc1ccc2c(c1)O[C@@H]1COc3cc(OC)c(OC)cc3[C@@H]1C2=O`: the growth inhibition is -9.49%.

As to `CCOC(=O)[N-]c1c[n+](N2CCOCC2)no1`, the growth inhibition was -36.1%.

Take `C#C[C@]1(O)CC[C@H]2[C@@H]3CCC4=C(CCC(=O)C4)[C@H]3CC[C@@]21C`: the growth inhibition was -20.8%.

As to `COc1cc(OC)c(-c2c(OC)cc(OC)cc2OC)c(OC)c1`, the growth inhibition was -13.5%.

Turning to `CC(C(=O)O)c1ccc(C(=O)c2cccs2)cc1` (stereo unspecified), the growth inhibition is -2.54%.

For `CN1CCC[C@@H]1CCO[C@](C)(c1ccccc1)c1ccc(Cl)cc1`, the growth inhibition is -28.4%.

Take `CC(=O)O[C@@H]1C[C@H]2C(C)(C)[C@H](O)C[C@H](O)[C@]2(C)[C@H]2CC[C@@]3(C)[C@H](c4ccoc4)OC(=O)[C@H]4O[C@]43[C@@]21C`: the growth inhibition is 11.1%.

As for `COc1cc2c(cc1-c1coc3c4c(c(OC)cc3c1=O)OC(C)(C)C=C4)OCO2`, the growth inhibition is -12.2%.

In the case of `O=C(O)c1cccnc1C(=O)O`, the growth inhibition was -3.47%.

For the compound `CCN(CCO)CCCC(C)Nc1ccnc2cc(Cl)ccc12` (stereo unspecified), the growth inhibition was -6.96%.

As to `CON`, the growth inhibition is -8.94%.

Consider `CN(C)c1ccc(C(=C2C=CC(=[N+](C)C)C=C2)c2ccc(N(C)C)cc2)cc1`, for which the growth inhibition came to 84.1%.

As for `CC(=O)[C@H]1CC[C@H]2[C@@H]3CC=C4C[C@@H](O)CC[C@]4(C)[C@H]3CC[C@]12C`, the growth inhibition is -6.2%.

As to `COc1cc(O)c2c(=O)cc(-c3ccc(O)cc3)oc2c1`, the growth inhibition was -5.33%.

Consider `O=c1ccn([C@@H]2O[C@H](COP(=O)(O)OP(=O)(O)OP(=O)(O)O)[C@@H](O)[C@H]2O)c(=O)[nH]1`, for which the growth inhibition is -10.4%.

With `CC12CCCC(O)(C1)C1CC(C)(C)C1CC2` (stereo not drawn) [beta-CARYOPHYLLENE ALCOHOL], the growth inhibition is -2.16%.

`Cc1cc(=O)oc2c(O)c(O)ccc12`: the growth inhibition was -8.55%.

For `CC(COc1ccccc1)NC(C)C(O)c1ccc(O)cc1` (stereo unspecified), the growth inhibition was -2.21%.

Regarding `CC[C@@H](C(=O)[C@@H](C)[C@@H](O)[C@H](C)CCc1ccc(C)c(O)c1C(=O)O)[C@H]1O[C@](CC)([C@H]2CC[C@](O)(CC)[C@H](C)O2)C[C@@H]1C`, the growth inhibition is -3.79%.
